# Test results as given in article doi:10.1101/2020.05.07.083568.
# Read-outs that look alike come from different tables or passages of the source. These are yes or no findings as the source states them, for the method shown. A result given as binding can be weak or reduced; the word gives no strength. For some of these results: Binding seen in cells or lysates may run through a third protein.
# B1: TbSMP1-1-BB2 (protein, UniProt Q4GYZ8 1-123)
# chain: MGCGGSKTSTVEFINGQPTVQGDEIVKGFNEGNGLLFRIVKTRAGRWAYYNDTLDYDMHVKVTFSEDCRIKALGQTRLEKLESGESVATVVVKPCATELFIEGHVNGYKAKMDAIPITDGDRQ
# modifications: N-terminal myristoylation site (G2)
# Experiments:
# [1] = molecular target: His-TbUnc119 (Trypanosoma brucei) (UniProt Q586Q9); assay: pull-down
# [2] = molecular target: GST-TbArl3A (Trypanosoma brucei) (UniProt Q57XJ5); assay: pull-down
# [3] = molecular target: GST-TbArl3A (Trypanosoma brucei) (UniProt Q57XJ5); assay: pull-down; remark: listed apart in the source
# [4] = molecular target: GFP-TbUnc119 (Trypanosoma brucei) (UniProt Q586Q9); assay: co-IP
molecule,measurement,setting,value
GST-TbArl3A (from UniProt Q57XJ5),binding,[1],binds
His-TbUnc119 (from UniProt Q586Q9),binding,[2],binds
same,binding,[3],binds
B1,binding,[4],binds
